Laboratory results reported in the supplement of paper PMC10331698.
± gives the standard deviation of the averaged measurements. Most entries show no effect beyond the scatter of the controls.

How the values were obtained:
Assay in all cases: level (log10 ratio to DMSO vehicle control); higher = higher biomarker level / cell amount than vehicle control
[1] = compound: OCC(F)(F)C(F)(F)C(F)(F)CO [Hexafluoroamylene glycol]; settings: 2200 nM; in DMSO
Experimental: (§1)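 BioMAP Diversity Plus panel of 12 human primary cell co-culture systems (3C, 4H, LPS, SAg, BT, BF4T, BE3C, CASM3C, HDF3CGF, KF3CT, MyoF, Mphg). Compounds were added 1 h before stimulation and left for 24 h (MyoF 48 h; BT 72 h for soluble read-outs or 6 d for IgG). Biomarkers were read by ELISA, cytotoxicity by SRB, PBMC viability and proliferation by Alamar Blue. Each well value was divided by the mean of 8 DMSO control wells on the same plate and log10 transformed; duplicate blinded samples were tested at 4 concentrations.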

[2] = compound: FC(F)(F)C(F)(F)C(F)(F)C(F)(F)C(F)(F)C(F)(F)I [Perfluoro-1-iodohexane]; settings: in DMSO
Experimental: as §1

[3] = compound: FC(F)(I)C(F)(F)C(F)(F)C(F)(F)C(F)(F)C(F)(F)I [1,6-Diiodoperfluorohexane]; settings: 2200 nM; in DMSO
Experimental: as §1

[4] = compound: FC(F)(F)C(F)(C(F)(F)F)C(F)(F)C(F)(F)CC1CO1 [3-(Perfluoro-3-methylbutyl)-1,2-propenoxide]; settings: in DMSO
Experimental: as §1

[5] = compound: O=C(O)C=C(C(F)(F)F)C(F)(F)F [3,3-Bis(trifluoromethyl)-2-propenoic acid]; settings: in DMSO
Experimental: as §1

[6] = compound: O=C(O)C(F)(F)C(F)(F)C(F)(F)C(F)(F)C(F)(F)C(F)(F)C(F)(F)C(F)(F)C(F)(F)C(F)(F)C(F)(F)C(F)(F)C(F)(F)F [Perfluorotetradecanoic acid]; settings: in DMSO
Experimental: as §1

[7] = compound: C=CC(=O)OCC(F)(F)C(F)(F)C(F)(F)COC(=O)C=C [1H,1H,5H,5H-Perfluoro-1,5-pentanediol diacrylate]; settings: 2200 nM; in DMSO
Experimental: as §1

[8] = compound: O=S(=O)(O)C(F)(F)C(F)(F)C(F)(F)C(F)(F)C(F)(F)C(F)(F)F [Perfluorohexanesulfonic acid]; settings: 2200 nM; in DMSO
Experimental: as §1

[9] = compound: O=C(Cl)C(F)(F)C(F)(F)C(F)(F)C(=O)Cl [Hexafluoroglutaryl chloride]; settings: 2200 nM; in DMSO
Experimental: as §1

[10] = compound: O=S(=O)(O)CCC(F)(F)C(F)(F)C(F)(F)C(F)(F)F [4:2 Fluorotelomer sulfonic acid]; settings: 2200 nM; in DMSO
Experimental: as §1

[11] = compound: C=CC(=O)OCCC(F)(F)C(F)(F)C(F)(F)C(F)(F)F [2-(Perfluorobutyl)ethyl acrylate]; settings: 2200 nM; in DMSO
Experimental: as §1

[12] = compound: OCCCC(F)(F)C(F)(F)C(F)(F)C(F)(F)C(F)(F)C(F)(F)C(F)(F)F [7:3 Fluorotelomer alcohol]; settings: 2200 nM; in DMSO
Experimental: as §1

[13] = compound: C=CC(=O)OCCC(F)(F)C(F)(F)C(F)(F)C(F)(F)C(F)(F)C(F)(F)C(F)(F)C(F)(F)F [8:2 Fluorotelomer acrylate]; settings: 2200 nM; in DMSO
Experimental: as §1

| Test System | level (log10) [1] | level (log10) ([2]; 2200 nM) | level (log10) ([2]; 6700 nM) | level (log10) ([2]; 20000 nM) | level (log10) ([2]; 60000 nM) | level (log10) [3] | level (log10) ([4]; 740 nM) | level (log10) ([4]; 2200 nM) | level (log10) ([5]; 2200 nM) | level (log10) ([5]; 6700 nM) | level (log10) ([5]; 20000 nM) | level (log10) ([5]; 60000 nM) | level (log10) ([6]; 740 nM) | level (log10) ([6]; 2200 nM) | level (log10) [7] | level (log10) [8] | level (log10) [9] | level (log10) [10] | level (log10) [11] | level (log10) [12] | level (log10) [13] |
| --- | --- | --- | --- | --- | --- | --- | --- | --- | --- | --- | --- | --- | --- | --- | --- | --- | --- | --- | --- | --- | --- |
| 3C:CD87/uPAR | -0.006 ± 0.025 | -0.015 ± 0.027 | -0.0125 ± 0.032 | 0.004 ± 0.0071 | 0.0285 ± 0.0035 | -0.0025 ± 0.026 | -0.0125 ± 0.013 | -0.013 ± 0.024 | 0.0275 ± 0.00071 | 0.0225 ± 0.0035 | 0.014 ± 0.02 | -0.0035 ± 0.013 | 0.0625 ± 0.043 | 0.0715 ± 0.054 | -0.001 ± 0.031 | -0.002 ± 0.0099 | -0.0135 ± 0.0064 | -0.0205 ± 0.0021 | 0.0035 ± 0.036 | -0.037 ± 0.035 | 0.0075 ± 0.0064 |
| lMphg:CD62E/E-Selectin | -0.0125 ± 0.0064 | 0.0195 ± 0.019 | 0.005 ± 0.0042 | 0.018 ± 0.02 | 0.0305 ± 0.033 | 0.018 ± 0.031 | -0.01 ± 0.0085 | -0.014 ± 0.014 | -0.012 ± 0.0014 | -0.049 ± 0.0085 | -0.068 ± 0.02 | -0.14 ± 0.034 | 0.014 ± 0.035 | -0.009 ± 0.014 | -0.012 ± 0.013 | 0.004 ± 0.0085 | 0.0045 ± 0.016 | -0.0165 ± 0.042 | -0.011 ± 0.0099 | -0.0035 ± 0.054 | 0.003 ± 0.038 |
| KF3CT:SRB | -0.0035 ± 0.0078 | 0.005 ± 0.014 | -0.0075 ± 0.00071 | -0.0065 ± 0.00071 | 0 ± 0.011 | -0.0175 ± 0.0092 | -0.0075 ± 0.0035 | -0.01 ± 0.0057 | 0.001 ± 0.013 | -0.0015 ± 0.0021 | 0.003 | 0.024 ± 0.0071 | 0.0015 ± 0.005 | -0.0035 ± 0.00071 | -0.0025 ± 0.012 | 0.0105 ± 0.03 | 0.0085 ± 0.005 | -0.0005 ± 0.0035 | -0.004 ± 0.0057 | 0.0055 ± 0.0078 | 0.005 ± 0.0085 |
| lMphg:CCL3/MIP-1alpha | 0.013 ± 0.0014 | 0.031 ± 0.0071 | 0.033 ± 0.031 | 0.023 ± 0.0042 | 0.0285 ± 0.033 | -0.0025 ± 0.025 | -0.002 ± 0.021 | -0.018 ± 0.023 | -0.0315 ± 0.04 | -0.0065 ± 0.071 | -0.0015 ± 0.023 | -0.0075 ± 0.016 | -0.039 ± 0.033 | -0.029 ± 0.03 | 0.0125 ± 0.0092 | 0.0245 ± 0.029 | -0.0135 ± 0.015 | 0.057 ± 0.098 | 0.0105 ± 0.021 | -0.0025 ± 0.021 | 0.0165 ± 0.028 |
| BE3C:CXCL8/IL-8 | -0.0015 ± 0.011 | 0.01 ± 0.025 | 0.011 ± 0.033 | 0.021 ± 0.028 | 0.052 ± 0.033 | 0.021 ± 0.065 | 0.041 ± 0.095 | 0.0135 ± 0.0064 | 0.0295 ± 0.052 | -0.016 ± 0.0042 | -0.026 ± 0.0085 | -0.0075 ± 0.04 | 0.015 ± 0.025 | 0.0225 ± 0.016 | 0.0165 ± 0.012 | 0.0205 ± 0.019 | 0.047 ± 0.018 | 0.0115 ± 0.04 | 0.0355 ± 0.047 | 0.013 ± 0.069 | 0.008 ± 0.079 |
| LPS:CD141/Thrombomodulin | 0.081 ± 0.062 | 0.005 ± 0.018 | -0.0175 ± 0.0035 | -0.0095 ± 0.025 | -0.0105 ± 0.0092 | -0.0265 ± 0.022 | 0.023 ± 0.024 | 0.017 ± 0.011 | -0.048 ± 0.064 | -0.0835 ± 0.093 | -0.091 ± 0.14 | -0.026 ± 0.12 | 0.035 ± 0.028 | 0.003 ± 0.079 | 0.063 ± 0.033 | -0.011 ± 0.035 | 0.016 ± 0.038 | 0.0355 ± 0.026 | 0.008 ± 0.059 | -0.011 ± 0.0042 | 0.013 ± 0.12 |
| BF4T:CD54/ICAM-1 | 0.015 ± 0.028 | 0.0055 ± 0.011 | -0.004 ± 0.0057 | 0.0045 ± 0.013 | 0 ± 0.0057 | -0.0155 ± 0.012 | -0.0035 ± 0.016 | -0.021 ± 0.023 | -0.0085 ± 0.022 | -0.0195 ± 0.005 | -0.0205 ± 0.005 | -0.0075 ± 0.013 | 0.0115 ± 0.0035 | -0.0035 ± 0.005 | -0.047 ± 0.02 | -0.0025 ± 0.0035 | 0.0215 ± 0.019 | 0.0195 ± 0.03 | -0.01 ± 0.033 | -0.0035 ± 0.012 | 0.0015 ± 0.023 |
| HDF3CGF:Collagen I | 0.0305 ± 0.015 | 0.0095 ± 0.042 | -0.0285 ± 0.026 | -0.0365 ± 0.0092 | -0.045 ± 0.0071 | -0.012 ± 0.052 | 0.0005 ± 0.061 | -0.0085 ± 0.12 | -0.03 ± 0.038 | -0.031 ± 0.0028 | -0.041 ± 0.02 | -0.03 ± 0.038 | 0.026 ± 0.0085 | -0.001 ± 0.034 | -0.0755 ± 0.043 | 0.0205 ± 0.021 | 0.0085 ± 0.06 | 0.0375 ± 0.14 | -0.009 ± 0.098 | 0.0255 ± 0.011 | -0.016 ± 0.061 |
| CASM3C:CXCL9/MIG | 0.005 ± 0.048 | 0.008 ± 0.014 | -0.0015 ± 0.0064 | 0.002 ± 0.0028 | -0.0025 ± 0.036 | 0.005 ± 0.0042 | -0.0105 ± 0.037 | -0.0145 ± 0.018 | -0.052 ± 0.079 | -0.059 ± 0.051 | -0.0845 ± 0.022 | -0.0965 ± 0.087 | 0.0245 ± 0.025 | -0.0155 ± 0.016 | -0.0165 ± 0.026 | 0.0075 ± 0.0078 | 0.035 ± 0.013 | 0.0005 ± 0.043 | -0.004 ± 0.033 | 0.009 ± 0.021 | 0.0365 ± 0.023 |
| 3C:CD141/Thrombomodulin | -0.0095 ± 0.029 | -0.012 ± 0.0042 | -0.025 ± 0.013 | -0.023 ± 0.014 | -0.0015 ± 0.005 | -0.0215 ± 0.00071 | 0.018 ± 0.011 | 0.002 ± 0.0028 | 0.0325 ± 0.023 | 0.023 ± 0.0057 | 0.0025 ± 0.00071 | 0.0215 ± 0.037 | 0.0125 ± 0.025 | -0.013 ± 0.021 | -0.0405 ± 0.077 | -0.005 ± 0.0099 | -0.0325 ± 0.00071 | 0.018 ± 0.028 | 0.0005 ± 0.015 | -0.0195 ± 0.0092 | 0.015 ± 0.0014 |
| MyoF:bFGF | 0.007 ± 0.011 | -0.013 ± 0.0028 | -0.0085 ± 0.0064 | -0.002 ± 0.0042 | 0.0235 ± 0.036 | -0.042 ± 0.021 | -0.0055 ± 0.03 | -0.003 ± 0.0042 | 0.005 ± 0.0042 | 0.0125 ± 0.0064 | 0.0075 ± 0.019 | 0.0325 ± 0.019 | 0.016 ± 0.014 | 0.015 ± 0.0028 | 0.008 ± 0.0085 | 0.0105 ± 0.0092 | 0.012 ± 0.0042 | 0.011 ± 0.023 | -0.0025 ± 0.011 | -0.0005 ± 0.013 | -0.0145 ± 0.0092 |
| BE3C:uPA | 0.001 ± 0.021 | -0.0015 ± 0.025 | 0.0175 ± 0.015 | -0.0005 ± 0.0035 | 0.001 ± 0.0085 | -0.0185 ± 0.0078 | 0.0165 ± 0.0064 | 0.003 ± 0.0057 | 0.001 ± 0.018 | -0.0205 ± 0.011 | -0.015 ± 0.0099 | -0.0045 ± 0.018 | -0.001 ± 0.0057 | 0.0035 ± 0.026 | -0.0105 ± 0.005 | 0.0055 ± 0.035 | 0.0055 ± 0.0035 | 0.005 ± 0.0042 | -0.0025 ± 0.035 | -0.0155 ± 0.03 | 0.009 ± 0.033 |
